Reference: the supplement of paper PMC9233669
Variants at the background level are over-represented here.

Legend:
[1] = tested on: biotinyl-Trp-oxazolone; test: self-aminoacylation, catalytic enhancement (BWO) (fold over background); higher = more active; k-Seq, kA / k0A0; sequences stand for … in GGGAAUGGAUCCACAUCUACGAAUUC…UUCACUGCAGACUUGACGAAGCUG
In short: (§1)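 Mutagenized RNA pools with a 21-nt variable region (0.43 μM) reacted with each biotinyl-aminoacyl-oxazolone at 2–1250 μM. Reactions ran in 50 μL HEPES/NaCl/KCl/MgCl2/CaCl2 buffer with 5% acetonitrile, pH 6.9–7.0, for 90 minutes at room temperature. Streptavidin-captured RNA was quantified by triplicate qPCR and Illumina sequencing, and per-sequence fraction reacted was fit to a pseudo-first-order model with 1000 bootstraps. Catalytic enhancement is median kA divided by the uncatalyzed rate, the low-activity peak of a bimodal Gaussian fit.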

[2] = tested on: biotinyl-Leu-oxazolone; test: self-aminoacylation, catalytic enhancement (BLO) (fold over background); higher = more active; k-Seq, kA / k0A0; sequences stand for … in GGGAAUGGAUCCACAUCUACGAAUUC…UUCACUGCAGACUUGACGAAGCUG
In short: as §1

[3] = tested on: biotinyl-Val-oxazolone; test: self-aminoacylation, catalytic enhancement (BVO) (fold over background); higher = more active; k-Seq, kA / k0A0; sequences stand for … in GGGAAUGGAUCCACAUCUACGAAUUC…UUCACUGCAGACUUGACGAAGCUG
In short: as §1

[4] = tested on: biotinyl-Ile-oxazolone; test: self-aminoacylation, catalytic enhancement (BIO) (fold over background); higher = more active; k-Seq, kA / k0A0; sequences stand for … in GGGAAUGGAUCCACAUCUACGAAUUC…UUCACUGCAGACUUGACGAAGCUG
In short: as §1

[5] = tested on: biotinyl-Met-oxazolone; test: self-aminoacylation, catalytic enhancement (BMO) (fold over background); higher = more active; k-Seq, kA / k0A0; sequences stand for … in GGGAAUGGAUCCACAUCUACGAAUUC…UUCACUGCAGACUUGACGAAGCUG
In short: as §1

[6] = tested on: biotinyl-Phe-oxazolone; test: self-aminoacylation, catalytic enhancement (BFO) (fold over background); higher = more active; k-Seq, kA / k0A0; sequences stand for … in GGGAAUGGAUCCACAUCUACGAAUUC…UUCACUGCAGACUUGACGAAGCUG
In short: as §1

| Sequence | self-aminoacylation [1] | self-aminoacylation [2] | self-aminoacylation [3] | self-aminoacylation [4] | self-aminoacylation [5] | self-aminoacylation [6] |
| --- | --- | --- | --- | --- | --- | --- |
| AAGUUUGAUGAUAGUCGCAAG [Fam3.1 aminoacylation ribozyme variant] | 1.4 | 1.63 | 1.49 | 1.78 | 1.49 | 2.4 |
| AUUACCUUGGUCAUCGUGUGA [Fam2.1 aminoacylation ribozyme variant] | 3.57 | 2.71 | 1.57 | 1.53 | 2.55 | 16.2 |
| CCAGACUUCAAGCAAUCGGUA [Fam1B.1 aminoacylation ribozyme variant] | 1.75 | 1.16 | 1.4 | 1.41 | 1.66 | 1.22 |
| CCACACUUCAACCAAUUGGUC [Fam1B.1 aminoacylation ribozyme variant] | 1.05 | 0.765 | 0.808 | 0.845 | 0.846 | 1.5 |
| AUGUUUGCUAAUAGUUGCAAG [Fam3.1 aminoacylation ribozyme variant] | 1.16 | 1.01 | 1.03 | 1.18 | 1.15 | 1.4 |
| CCACACUACAAGCAAUAGGUC [Fam1B.1 aminoacylation ribozyme variant] | 0.54 | 0.437 | 0.738 | 0.628 | 0.402 | 1.28 |
| AUUACCUUGGUCAUCGAGGGA [Fam2.1 aminoacylation ribozyme variant] | 1.78 | 1.91 | 1.48 | 1.37 | 1.68 | 0.715 |
| AAGUUUGGUAGUAGUCGCAAG [Fam3.1 aminoacylation ribozyme variant] | 0.982 | 0.994 | 0.913 | 0.986 | 0.953 | 1.43 |
| CCACAGUUCUAGCAAUCGGUC [Fam1B.1 aminoacylation ribozyme variant] | 1.05 | 0.675 | 0.814 | 0.955 | 0.79 | 0.904 |
| AAGUUUGCUAAUAGUCGCACU [Fam3.1 aminoacylation ribozyme variant] | 1.02 | 1.11 | 1.29 | 1.34 | 0.854 | 1.19 |
| AUUACCCUGGUCAUCAAGAGA [Fam2.1 aminoacylation ribozyme variant] | 0.478 | 0.659 | 0.653 | 0.761 | 0.779 | 0.91 |
| AAGUUAGCUAAUAGACGCAAG [Fam3.1 aminoacylation ribozyme variant] | 0.735 | 0.676 | 0.668 | 0.825 | 0.484 | 1.13 |
| UUUGCCCUGGUCAUCGAGUGA [Fam2.1 aminoacylation ribozyme variant] | 46.1 | 41 | 18.1 | 16.5 | 45.5 | 294 |
| AUUACCCUGGUCAUCGACUGA [Fam2.1 aminoacylation ribozyme variant] | 0.577 | 0.767 | 0.901 | 0.838 | 0.756 | 0.61 |
| CCAAACUCCAAGCAAUCGGUC [Fam1B.1 aminoacylation ribozyme variant] | 1.22 | 1.14 | 1.42 | 1.15 | 0.811 | 1.55 |
| CCACACUGCAAGCAAUGGGUC [Fam1B.1 aminoacylation ribozyme variant] | 1.52 | 1.69 | 1.49 | 1.45 | 1.45 | 1.2 |
| CUACUUCACACAAUCGGUUUG [Fam1A.1 aminoacylation ribozyme variant] | 0.717 | 0.655 | 0.858 | 0.814 | 0.708 | 0.655 |
| AAGUUUGCUAAUAGCCGCAAC [Fam3.1 aminoacylation ribozyme variant] | 1.24 | 1.09 | 0.851 | 0.991 | 0.845 | 0.851 |
| CUACUUCAGACAAUCGGUCUA [Fam1A.1 aminoacylation ribozyme variant] | 0.597 | 0.814 | 0.708 | 0.84 | 0.685 | 0.848 |
| ACUACCCUGGUCAUCCAGUGA [Fam2.1 aminoacylation ribozyme variant] | 5.86 | 5.01 | 3.27 | 3.37 | 5.05 | 21.2 |
| CUAGUUCAAGCAAUCGGUCUG [Fam1A.1 aminoacylation ribozyme variant] | 1.45 | 1.11 | 0.854 | 1.04 | 0.933 | 1.66 |

| Sequence | self-aminoacylation [1] | self-aminoacylation [2] | self-aminoacylation [3] | self-aminoacylation [4] | self-aminoacylation [5] | self-aminoacylation [6] |
| --- | --- | --- | --- | --- | --- | --- |
| CCACACUUCGGGCAAUCGGUC [Fam1B.1 aminoacylation ribozyme variant] | 2.23 | 2.48 | 3.09 | 2.1 | 2.73 | 9.3 |
| ACACACUUCAAGCAAUCCGUC [Fam1B.1 aminoacylation ribozyme variant] | 1.77 | 1.01 | 1.58 | 1.38 | 1.2 | 1.33 |
| CUACUUCCGACAAUCGGUCUG [Fam1A.1 aminoacylation ribozyme variant] | 0.568 | 0.805 | 1.13 | 0.846 | 1.06 | 1.7 |
| CCACAGUUCAAGCAAGCGGUC [Fam1B.1 aminoacylation ribozyme variant] | 0.602 | 0.952 | 1.11 | 1.17 | 1.25 | 0.797 |
| CCACAAAUCAAGCAAUCGGUC [Fam1B.1 aminoacylation ribozyme variant] | 0.793 | 0.937 | 1.17 | 1.22 | 0.882 | 1.01 |
| CCACACUUUAAGCAAUCGUUC [Fam1B.1 aminoacylation ribozyme variant] | 0.575 | 0.543 | 0.849 | 0.669 | 0.566 | 0.911 |
| AACUUUACUAAUAGUCGCAAG [Fam3.1 aminoacylation ribozyme variant] | 2.92 | 2.26 | 1.86 | 2.07 | 2.23 | 6.76 |
| AAGUUUGCUAAUCGUCGCAAA [Fam3.1 aminoacylation ribozyme variant] | 1.47 | 1.02 | 1.05 | 1.15 | 1.22 | 1.38 |
| AUUCACCUAGGUCGUCCGGUG [Fam2.2 aminoacylation ribozyme variant] | 2.39 | 3.89 | 2.35 | 2.52 | 3.34 | 14.4 |
| AAGUUUCCUAAUAGUCGUAAG [Fam3.1 aminoacylation ribozyme variant] | 1.27 | 1.07 | 1.07 | 1.2 | 1.18 | 2.58 |
| AUUACCCUGGUCAGUGAGUGA [Fam2.1 aminoacylation ribozyme variant] | 0.587 | 1.01 | 0.883 | 1.11 | 0.869 | 1.24 |
| AAGUUGGCCAAUAGUCGCAAG [Fam3.1 aminoacylation ribozyme variant] | 1.51 | 1.95 | 1.47 | 1.79 | 1.32 | 1.81 |
| CCACACCUCAAGCACUCGGUC [Fam1B.1 aminoacylation ribozyme variant] | 1.29 | 1.07 | 1.9 | 1.29 | 1.33 | 1.51 |
| CCAAACUUCAAGCAACCGGUC [Fam1B.1 aminoacylation ribozyme variant] | 1.18 | 0.928 | 1.5 | 1.18 | 1.07 | 1.29 |
| CCUCACUUCUAGCAAUCGGUC [Fam1B.1 aminoacylation ribozyme variant] | 0.681 | 0.698 | 0.769 | 0.715 | 0.617 | 1.31 |
| AUUACCCUGGUCAUCGAACGA [Fam2.1 aminoacylation ribozyme variant] | 0.867 | 0.662 | 0.748 | 0.959 | 0.812 | 0.752 |
| AAGGUUGAUAAUAGUCGCAAG [Fam3.1 aminoacylation ribozyme variant] | 1.19 | 1.21 | 1.08 | 1.33 | 1.15 | 1.85 |
| AUUCACCUAGGUCAUCGGCUU [Fam2.2 aminoacylation ribozyme variant] | 3.27 | 2.3 | 2.02 | 2.1 | 2.26 | 6.3 |
| GCACACUUCAAGCAAUAGGUC [Fam1B.1 aminoacylation ribozyme variant] | 1.25 | 0.748 | 0.984 | 1 | 0.857 | 1.87 |
| AAGUUUGCUUAUAGUCCCAAG [Fam3.1 aminoacylation ribozyme variant] | 0.859 | 0.788 | 1.06 | 1.06 | 0.964 | 0.875 |
| CCACACUUCAAGGAAACGGUC [Fam1B.1 aminoacylation ribozyme variant] | 0.55 | 0.633 | 0.632 | 0.648 | 0.693 | 0.735 |
